From publication PMC7397857
Numbering of substitutions follows the chain as printed. In names and notes the source's numbering stands. Results are given in words; binding and its absence hold for the method and conditions named. In cells and extracts the contact can be indirect. Some results given as binding are weak or reduced against the parent protein; the word gives no strength. For some of these results: Where a sequence is shown, tags or fusion partners need not be part of it. Blank lines part the entries; values can stand above or below the molecule they belong to.

Chains of the proteins cited; added tags and fusions are not shown.
UniProt P60468: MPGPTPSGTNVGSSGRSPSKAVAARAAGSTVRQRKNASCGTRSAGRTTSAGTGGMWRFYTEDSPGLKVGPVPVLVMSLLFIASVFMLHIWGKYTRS
UniProt A2RRP1: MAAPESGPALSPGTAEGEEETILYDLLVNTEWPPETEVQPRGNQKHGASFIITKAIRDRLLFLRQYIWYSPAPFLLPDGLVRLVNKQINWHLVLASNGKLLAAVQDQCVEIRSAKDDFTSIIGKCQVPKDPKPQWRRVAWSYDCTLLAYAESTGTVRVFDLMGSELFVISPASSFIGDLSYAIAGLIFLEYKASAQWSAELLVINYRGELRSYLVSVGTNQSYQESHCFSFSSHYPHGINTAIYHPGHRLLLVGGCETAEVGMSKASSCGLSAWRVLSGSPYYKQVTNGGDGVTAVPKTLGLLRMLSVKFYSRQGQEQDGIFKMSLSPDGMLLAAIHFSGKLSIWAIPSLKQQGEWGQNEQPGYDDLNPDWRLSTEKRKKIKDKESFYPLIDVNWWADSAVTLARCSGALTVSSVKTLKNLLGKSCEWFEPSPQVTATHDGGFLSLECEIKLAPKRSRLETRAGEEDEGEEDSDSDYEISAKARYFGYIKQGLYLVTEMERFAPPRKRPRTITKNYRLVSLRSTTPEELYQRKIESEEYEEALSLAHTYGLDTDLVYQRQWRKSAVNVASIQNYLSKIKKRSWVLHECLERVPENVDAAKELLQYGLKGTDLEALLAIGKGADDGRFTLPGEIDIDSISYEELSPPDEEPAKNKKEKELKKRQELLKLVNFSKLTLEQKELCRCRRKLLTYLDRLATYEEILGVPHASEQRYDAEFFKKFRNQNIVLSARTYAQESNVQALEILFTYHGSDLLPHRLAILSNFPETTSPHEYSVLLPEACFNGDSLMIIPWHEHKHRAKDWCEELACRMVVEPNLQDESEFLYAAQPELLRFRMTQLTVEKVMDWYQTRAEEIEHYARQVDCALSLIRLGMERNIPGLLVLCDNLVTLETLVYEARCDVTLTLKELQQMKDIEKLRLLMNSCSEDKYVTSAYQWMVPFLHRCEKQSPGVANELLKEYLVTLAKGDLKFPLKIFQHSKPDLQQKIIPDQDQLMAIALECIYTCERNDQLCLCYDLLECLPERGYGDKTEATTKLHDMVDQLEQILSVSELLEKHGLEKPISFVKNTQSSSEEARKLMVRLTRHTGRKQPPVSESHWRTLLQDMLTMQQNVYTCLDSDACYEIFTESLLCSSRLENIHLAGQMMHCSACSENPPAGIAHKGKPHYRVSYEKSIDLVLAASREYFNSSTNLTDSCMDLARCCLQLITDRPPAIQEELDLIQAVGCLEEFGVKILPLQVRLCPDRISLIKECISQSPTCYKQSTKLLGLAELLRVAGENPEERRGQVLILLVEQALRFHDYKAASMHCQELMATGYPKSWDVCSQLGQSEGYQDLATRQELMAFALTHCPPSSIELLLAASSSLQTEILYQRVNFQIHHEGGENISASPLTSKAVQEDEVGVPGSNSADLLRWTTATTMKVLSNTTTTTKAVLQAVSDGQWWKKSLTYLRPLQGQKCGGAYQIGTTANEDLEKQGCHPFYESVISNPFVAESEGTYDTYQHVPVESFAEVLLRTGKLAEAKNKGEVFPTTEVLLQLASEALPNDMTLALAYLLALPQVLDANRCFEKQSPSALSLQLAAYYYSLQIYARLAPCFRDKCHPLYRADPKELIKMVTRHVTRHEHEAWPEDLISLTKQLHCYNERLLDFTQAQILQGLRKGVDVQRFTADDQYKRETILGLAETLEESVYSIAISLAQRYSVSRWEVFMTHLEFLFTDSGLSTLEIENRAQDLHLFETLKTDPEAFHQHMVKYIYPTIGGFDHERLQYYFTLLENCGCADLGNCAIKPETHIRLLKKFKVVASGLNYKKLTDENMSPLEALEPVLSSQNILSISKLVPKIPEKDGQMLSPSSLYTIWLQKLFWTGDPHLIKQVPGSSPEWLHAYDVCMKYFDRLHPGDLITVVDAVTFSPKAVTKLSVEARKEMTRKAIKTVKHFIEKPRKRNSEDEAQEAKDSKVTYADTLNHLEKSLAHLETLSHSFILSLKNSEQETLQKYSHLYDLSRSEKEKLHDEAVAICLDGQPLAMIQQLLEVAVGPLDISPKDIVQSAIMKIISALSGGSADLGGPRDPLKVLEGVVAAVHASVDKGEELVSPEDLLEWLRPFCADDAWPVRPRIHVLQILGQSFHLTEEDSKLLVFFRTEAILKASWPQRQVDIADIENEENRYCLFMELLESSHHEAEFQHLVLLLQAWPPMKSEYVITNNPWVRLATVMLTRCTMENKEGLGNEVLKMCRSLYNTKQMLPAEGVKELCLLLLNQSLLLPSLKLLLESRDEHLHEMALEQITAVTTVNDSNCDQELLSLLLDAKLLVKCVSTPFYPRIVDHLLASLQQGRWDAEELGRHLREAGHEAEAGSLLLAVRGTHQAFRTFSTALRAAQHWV

Key:
[1] = biological target: SEC61B (human (endogenous in HeLa)) (UniProt P60468); test: proximity ligation; Duolink PLA on fixed, permeabilised cells with primary antibodies to the two proteins
T7-NBAS (human) = T7-NBAS (human) (UniProt A2RRP1); test: co-IP; tagged UPF1 (wild type or mutant) cotransfected with T7-NBAS, HeLa cells, in the presence or absence of RNases; source of UPF2 not stated

binding [1]: binds
Molecule: endogenous NBAS tagged with an eGFP/3xFlag tag at its N terminus (from UniProt A2RRP1 1-2371)

binding (T7-NBAS (human)): binds
B1: Flag-tagged UPF1 (protein, UniProt Q92900-2 1-1118)
chain: MSVEAYGPSSQTLTFLDTEEAELLGADTQGSEFEFTDFTLPSQTQTPPGGPGGPGGGGAGGPGGAGAGAAAGQLDAQVGPEGILQNGAVDDSVAKTSQLLAELNFEEDEEDTYYTKDLPIHACSYCGIHDPACVVYCNTSKKWFCNGRGNTSGSHIVNHLVRAKCKEVTLHKDGPLGETVLECYNCGCRNVFLLGFIPAKADSVVVLLCRQPCASQSSLKDINWDSSQWQPLIQDRCFLSWLVKIPSEQEQLRARQITAQQINKLEELWKENPSATLEDLEKPGVDEEPQHVLLRYEDAYQYQNIFGPLVKLEADYDKKLKESQTQDNITVRWDLGLNKKRIAYFTLPKTDSDMRLMQGDEICLRYKGDLAPLWKGIGHVIKVPDNYGDEIAIELRSSVGAPVEVTHNFQVDFVWKSTSFDRMQSALKTFAVDETSVSGYIYHKLLGHEVEDVIIKCQLPKRFTAQGLPDLNHSQVYAVKTVLQRPLSLIQGPPGTGKTVTSATIVYHLARQGNGPVLVCAPSNIAVDQLTEKIHQTGLKVVRLCAKSREAIDSPVSFLALHNQIRNMDSMPELQKLQQLKDETGELSSADEKRYRALKRTAERELLMNADVICCTCVGAGDPRLAKMQFRSILIDESTQATEPECMVPVVLGAKQLILVGDHCQLGPVVMCKKAAKAGLSQSLFERLVVLGIRPIRLQVQYRMHPALSAFPSNIFYEGSLQNGVTAADRVKKGFDFQWPQPDKPMFFYVTQGQEEIASSGTSYLNRTEAANVEKITTKLLKAGAKPDQIGIITPYEGQRSYLVQYMQFSGSLHTKLYQEVEIASVDAFQGREKDFIILSCVRANEHQGIGFLNDPRRLNVALTRARYGVIIVGNPKALSKQPLWNHLLNYYKEQKVLVEGPLNNLRESLMQFSKPRKLVNTINPGARFMTTAMYDAREAIIPGSVYDRSSQGRPSSMYFQTHDQIGMISAGPSHVAAMNIPIPFNLVMPPMPPPGYFGQANGPAAGRGTPKGKTGRGGRQKNRFGLPGPSQTNLPNSQASQDVASQPFSQGALTQGYISMSQPSQMSQPGLSQPELSQDSYLGDEFKSQIDVALSQDSTYQGERAYQHGGVTGLSQY

binding (T7-NBAS (human)): no binding
B2: UPF1 K498A (protein, UniProt Q92900-2 1-1118)
chain: B1 chain with K498A

binding (T7-NBAS (human)): binds
B3: UPF1 C126S (protein, UniProt Q92900-2 1-1118)
chain: B1 chain with C126S
